Data as given in PubChem BioAssay AID1347076 (National Center for Advancing Translational Sciences (NCATS), 2019).
Several values for one entry are separate records, joined by “and”; a condition that tells them apart may be missing. Identical values can stand only once. The campaign covered roughly 400,000 compounds. About 13,000 (3.2%) were called active. Inconclusive results, whose numbers are uncertain, are shown with a selection of clear calls. Calls come from the whole dose curve; as a rule, active = well fitted cell-killing curve with a large enough effect; inconclusive = small, poorly fitted or top-dose-only effect, or effect the other way; inactive = flat fitted curve, though single readings scatter. A potency beside an inconclusive call is a rough fit, not a confirmed value.

Test: qHTS assay for MDR1-selective chemotherapeutics: Primary screen using the drug-selected MDR subline cells KB-V1; note: nearly all actives have a fitted effect of over 60% in size
Conditions: KB-V1 MDR cells viability, CellTiter-Glo, 72 h; activity change, negative = cytotoxicity: at 46.1 µM (top of the series)
Procedure, shortened: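 Cells of the MDR subline KB-V1 are plated, dosed with compound at multiple concentrations, and incubated 72 h at 37 degrees C; CellTiter-Glo is then added and luminescence read after 10 min.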
% is set by controls: 0 for no effect and ±100 for the full control effect; potency is the fitted concentration of half-maximal effect.

Structure (SMILES) | Potency | activity change, negative = cytotoxicity
CCOC(=O)C1=C[C@@H](C(C)(C)C)N(S(=O)(=O)c2ccc(C)cc2)[C@H]1c1cccc(Cl)c1 | inactive | 
Cn1c(=O)c(C(=O)NNC(=O)c2ccc(Br)cc2)c(O)c2ccccc21 | inconclusive: 20.6 µM [cytotoxic, single point] | 
CCOc1ccc2ncc(S(=O)(=O)c3ccccc3)c(N3CCN(c4ccccc4)CC3)c2c1 | inactive | 
Cc1cc2oc(=O)cc(C)c2c(=O)o1 | inconclusive: 16.4 µM [rising, single point] | 
COc1ccc(C(=O)NN=C2CCCC2)cc1OC | inconclusive: 29.1 µM [rising, single point] | 
Cc1ccc(C(CNC(=O)C(=O)Nc2ccc3c(c2)OCCO3)N2CCN(C)CC2)cc1 (stereo unspecified) | inactive | 
O=Cc1ccc2c(c1)OCCOCCOCCOCCO2 | inactive | 
CC(C)(O)C(=O)NNC(=S)Nc1cccc(C(F)(F)F)c1 | inactive | 
COc1ccc(CN2CCN(C(=O)c3cccc4ccccc34)CC2)c(OC)c1OC | inconclusive: 2.91 µM [cytotoxic, full curve] | 
Fc1cccc2sc(Nc3nnc(-c4ccco4)o3)nc12 | active: 9.2 µM | 
COc1ccc(OC)c(C(Nc2ccccc2)P(=O)(OC(C)C)OC(C)C)c1 (stereo unspecified) | inconclusive: 9.2 µM [cytotoxic, partial curve] | 
COCOc1ccc(-c2ncc(OC)nc2NC(=O)c2ccsc2)cc1 | inconclusive: 18.4 µM [cytotoxic, single point] | 
COc1cc(C(=O)Nc2ccc(O)cc2C(=O)O)ccc1OC(C)=O | inconclusive: 2.91 µM [cytotoxic, full curve, poor fit] | 
O=C(Nc1nnc(SCC(=O)N2CCCc3ccccc32)s1)c1ccc2ccccc2c1 | inconclusive: 7.31 µM [cytotoxic, partial curve] | 
COc1cc(OC)cc(C(=O)NC2CCCN(Cc3ccc(Cl)cc3)C2)c1 (stereo unspecified) | inconclusive: 13 µM [cytotoxic, partial curve] | 
COc1ccccc1CN(C)C(C)C(=O)Nc1cccc(C(C)=O)c1 (stereo unspecified) | inconclusive: 10.3 µM [cytotoxic, partial curve] | 
COCCCNC(=S)N(Cc1ccccc1)Cc1nc2ccccc2c(=O)[nH]1 | inactive | 
O=C(CSc1ccc(-c2ccccn2)nn1)N1CCCCC1 | inconclusive: 23.1 µM [cytotoxic, single point] | 
COCC(C)NC(=O)CSc1ncnc2sc(-c3ccccc3)cc12 (stereo unspecified) | inconclusive: 11.6 µM [cytotoxic, partial curve] | 
CC(C)(C)CC(C)(C)c1ccc(O)c(CN2CCN(CCC#N)CC2)c1 | inconclusive: 23.1 µM [cytotoxic, partial curve, poor fit] | 
COc1ccc(C=Cc2ccc3ccccc3n2)c(OC)c1 | inconclusive: 23.1 µM [cytotoxic, single point] | 
O=C(Cn1c(=O)[nH]c2sc3c(c2c1=O)CCCC3)NCC1CCCO1 (stereo unspecified) | inactive | 
COc1ccc2c(c1)cc1c(=O)n(CC(=O)NCCCN3CCOCC3)nc(C)n12 | inactive | 
CCCCC(=O)N/N=C(\C)c1cccc(NC(=O)C2CC2)c1 | inactive | 

Structure (SMILES) | Potency | activity change, negative = cytotoxicity
COc1cc(C(=O)N2CCC(O)(c3ccccc3)CC2)cc(OC)c1OC | inactive | 
CSCC[C@H](NC(=O)c1cccc(S(=O)(=O)N2CCN(C)CC2)c1)c1nc2ccccc2[nH]1 | inconclusive: 2.59 µM [rising, full curve] | 
CC12CCC(C(=O)N/N=C/c3ccc(O)cc3O)(OC1=O)C2(C)C (stereo unspecified) | inconclusive: 23.1 µM [cytotoxic, single point] | 
COc1ccc(NC(=S)Nc2ccc(OCc3ccccc3)cc2)c(OC)c1 | active: 16.4 µM | 
CC(OC(=O)C1CCN(S(=O)(=O)c2ccc(C(C)(C)C)cc2)CC1)C(=O)N1CCOCC1 (stereo unspecified) | active: 16.4 µM | 
O=c1[nH]c2ccc(NCc3ccc(-c4cccc(Cl)c4)o3)cc2[nH]1 | inactive | 
CCOc1ccc(S(=O)(=O)N2CCN(c3cc(Cl)ccc3Cl)CC2)c2ccccc12 | inconclusive: 8.2 µM [cytotoxic, partial curve] | 
CCOc1ccccc1CNC(=O)C1CCN(S(=O)(=O)c2cccc3nonc23)CC1 | inactive | 
COc1ccc2cc(C(=O)N/N=C/c3sc4ccccc4c3O)ccc2c1 | active: 23.1 µM | 
Cc1ccc2nc(NC(=O)Cc3cccs3)sc2c1 | inconclusive: 29.1 µM [cytotoxic, single point] | 
CC(=O)Nc1ncnc2c1c(-c1ccc(Cl)cc1)nn2C(C)(C)C | inactive | 
Cc1ccc(N=C2NC(=O)/C(=C/C=C/c3ccco3)S2)cc1 | inconclusive: 4.61 µM [cytotoxic, single point] | 
CN1c2ccccc2C2(C)CCCC3=Cc4cccc([N+](=O)[O-])c4OC312 (stereo unspecified) | inconclusive: 6.51 µM [cytotoxic, partial curve] | 
O=C(CCCCCn1c(=O)[nH]c2ccccc2c1=O)NCc1cccc(Cl)c1 | inactive | 
COc1cc(OC)c(C(=O)O/N=C(\N)c2cccc(C)c2)cc1OC | inconclusive: 29.1 µM [cytotoxic, single point] | 
O=C(N/N=C/c1ccc(Cl)s1)c1ccccc1[N+](=O)[O-] |  | inconclusive: -3.08%
Cc1cccc(C)c1OCC(O)CN1CCC(CN2C(=O)c3cccc4cccc(c34)C2=O)CC1 (stereo unspecified) | inconclusive: 29.1 µM [cytotoxic, single point] | 
CCOC(=O)[C@]12CCC=C1N(Cc1ccccc1)C(=O)[C@H](CC(=O)NCCC(C)C)C2 | inconclusive: 6.51 µM [cytotoxic, partial curve] | 
Cc1cc(Cl)ccc1OCCCC(=O)NCc1ccncc1 | active: 16.4 µM | 
COc1ccc(C)cc1NC(=O)C1CCC(CNc2c(N3CCOCC3)c(=O)c2=O)CC1 (stereo unspecified) | inconclusive: 6.51 µM [rising, partial curve] | 
COC(C/C=C/[C@@H](O)COCc1ccccc1)OC | inconclusive: 20.6 µM [rising, single point] | 
Cc1cccc(N2CCN(C(=O)C(Cc3ccccc3)n3cccc3)CC2)c1C (stereo unspecified) | inconclusive: 18.4 µM [cytotoxic, single point] | 
O=C(Nc1nnc(-c2ccc(Cl)cc2)o1)C1=COCCO1 | active: 8.2 µM | 
COC(=O)c1cc(=O)n(Cc2ccc(OC)c(OC)c2)c(=Nc2ccc(F)cc2)s1 | inconclusive: 29.1 µM [cytotoxic, single point] | 

Structure (SMILES) | Potency | activity change, negative = cytotoxicity
O=C(c1cc(-c2ccc(Cl)cc2)on1)N1CCCC1 | inactive | 
CC(C)NS(=O)(=O)c1ccc(NC(=O)C(C)OC(=O)CCCOc2ccccc2)cc1 (stereo unspecified) | inconclusive: 29.1 µM [rising, partial curve, poor fit] | 
CCOc1cccc(-c2nn3c(-c4cc(C)[nH]n4)nnc3s2)c1 | inconclusive: 29.1 µM [cytotoxic, single point] and inconclusive: 8.2 µM [cytotoxic, partial curve] | 
Cc1c2cnn(CC(=O)N3CCN(c4ccccc4)CC3)c(=O)c2c(C)n1Cc1ccc(F)cc1 | inactive | 
O=C(CC(=O)N/N=C\c1cccc(Cl)c1Cl)NCc1ccccc1 | inconclusive: 29.1 µM [cytotoxic, single point] | 
CC(C)CNc1ncnc2c1ncn2[C@H]1CN(Cc2cccc3ccccc23)C[C@@H](CO)O1 | inconclusive: 29.1 µM [cytotoxic, single point] | 
O=c1c2c(-c3ccccc3)csc2nc2c3ccccc3c(NCCN3CCOCC3)nn12 | active: 20.6 µM | 
O=C(CSc1nnc(-c2ccccc2)n1Cc1ccco1)NCc1ccc2c(c1)OCO2 | inactive | 
CC(C)(C)C(=O)/C=c1\[nH]c(=O)/c(=C\c2ccc(C#N)cc2)s1 | inconclusive: 23.1 µM [cytotoxic, single point] | 
O=C(Nc1ccccc1N1CCOCC1)c1ccccc1NS(=O)(=O)c1ccc(F)c(F)c1 | inconclusive: 29.1 µM [cytotoxic, single point] | 
O=C1CC(c2ccccc2)Cc2[nH]c(=O)c(C(=O)Nc3ccc(OC(F)(F)F)cc3)cc21 (stereo unspecified) | inactive | 
CC(C)(C)S(=O)N1Cc2cc(C(=O)N[C@@H]3CCN(Cc4ccccc4)C3)nc(-c3cccc(-c4cc5ccccc5o4)c3)c2[C@@H]1CCO (stereo partly specified) | inconclusive: 29.1 µM [cytotoxic, single point] | 
O=C(CNC(=O)c1ccccc1Br)N/N=C/c1ccccc1O | inconclusive: 29.1 µM [cytotoxic, single point] | 
CC(C)NC(=O)N1CC(c2ccccc2)C(c2ccc(Cl)cc2)=N1 (stereo unspecified) | inconclusive: 29.1 µM [cytotoxic, single point] | 
COc1ccc(C(=O)N/C(=C/c2cccs2)c2nc3ccccc3[nH]2)cc1OC | inactive | 
O=C(Nn1c(O)c(C=C2N=c3ccccc3=N2)sc1=S)c1cccc(Cl)c1 | inconclusive: 14.1 µM [rising, single point] | 
O=S(=O)(c1ccc(Cl)nc1)N(Cc1ccccc1)Cc1ccccc1 | active: 18.4 µM | 
O=[N+]([O-])c1ccc(-n2cnc3ccccc32)c([N+](=O)[O-])c1 | inactive | 
Cc1ccc(Nc2ncnc3c2cnn3-c2ccccc2)c(C)c1 | inconclusive: 16.4 µM [cytotoxic, partial curve, poor fit] | 
Cc1ccc(C(=O)N2CCC(C)CC2)cc1S(=O)(=O)N1CCCCC1 | inconclusive: 8.2 µM [cytotoxic, partial curve] | 
CCCS(=O)(=O)NC(=O)C1(C)CCN(C(=O)Cc2cccc(OC)c2)C1 (stereo unspecified) | inactive | 
COc1ccc(-n2nnnc2SCC(=O)N2CCOCC2)cc1 | inactive | 
Cn1c(CN2CCCCC2)nc2cc(NC(=O)c3cccc(Br)c3)ccc21 | inconclusive: 23.1 µM [cytotoxic, single point] | 
